Laboratory results: PubChem BioAssay AID602 (SRMLSC, 2007)
This is one part of the list.

Assay: reversal of MRP1-mediated doxorubicin resistance, primary screen, H69AR cells, doxorubicin co-treatment (AID 602)
Conditions: H69AR cells + 2 uM doxorubicin, CellTiter-Glo, 72 h; measured here: viability with 2 uM doxorubicin; at 10 µM; stronger effect = lower value

| SMILES | viability [%] |
| --- | --- |
| c1ccc(CN2CCC(Nc3ccccc3)CC2)cc1 | 80 |
| N/C(=N\O)c1c(N)no[n+]1[O-] | 98.8 |
| CCC(CO)(C(=O)OC1CN2CCC1CC2)c1ccccc1 (centres undefined) | 99.9 |
| CCOc1ncccc1C(=O)NCC1(N2CCOCC2)CCCCC1 | 89.6 |
| Fc1ccccc1NC1CCN(Cc2ccccc2)CC1 | 91.8 |
| O=C(OC1CN2CCC1CC2)C1c2ccccc2Oc2ccccc21 (centres undefined) | 75.3 |
| O=C(NCC1(N2CCOCC2)CCCCC1)c1cc2ccccc2o1 | 86 |
| O=C(NCC1(N2CCOCC2)CCCCC1)c1cc(=O)[nH]c2ccccc12 | 95.4 |
| N#CC1(Nc2ccccc2)CCN(CCc2ccccc2)CC1 | 89 |
